Experimental data reported in the supplement of paper PMC10032668.
The list shows a part of the results. Only hits are listed; about a third recur on repeated control peptides.

The chains behind the UniProt entries cited, without tags or fusion partners.
CDC27, P30260, UniProt P30260, whole entry: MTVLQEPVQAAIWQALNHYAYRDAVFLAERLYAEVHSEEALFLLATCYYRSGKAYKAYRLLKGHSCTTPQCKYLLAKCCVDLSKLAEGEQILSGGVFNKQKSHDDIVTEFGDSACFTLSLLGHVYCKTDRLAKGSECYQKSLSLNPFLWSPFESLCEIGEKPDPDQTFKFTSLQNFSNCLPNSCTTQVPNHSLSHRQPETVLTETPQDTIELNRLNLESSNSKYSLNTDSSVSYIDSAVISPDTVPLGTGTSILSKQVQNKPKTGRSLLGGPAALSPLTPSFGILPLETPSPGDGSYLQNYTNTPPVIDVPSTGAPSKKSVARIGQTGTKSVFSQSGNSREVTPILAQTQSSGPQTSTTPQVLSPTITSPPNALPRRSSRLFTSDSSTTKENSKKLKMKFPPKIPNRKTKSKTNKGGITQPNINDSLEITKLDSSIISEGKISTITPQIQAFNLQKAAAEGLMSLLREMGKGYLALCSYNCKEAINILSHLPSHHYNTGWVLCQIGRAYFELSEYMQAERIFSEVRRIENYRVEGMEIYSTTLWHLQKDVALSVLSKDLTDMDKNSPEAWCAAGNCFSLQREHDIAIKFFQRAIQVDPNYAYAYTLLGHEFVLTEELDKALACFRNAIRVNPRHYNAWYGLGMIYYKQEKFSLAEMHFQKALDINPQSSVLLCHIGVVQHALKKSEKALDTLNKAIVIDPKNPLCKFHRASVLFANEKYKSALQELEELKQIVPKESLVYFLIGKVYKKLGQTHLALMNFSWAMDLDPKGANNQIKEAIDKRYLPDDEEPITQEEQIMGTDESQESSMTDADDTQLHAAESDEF
GPN1, Q9HCN4, UniProt Q9HCN4, whole entry: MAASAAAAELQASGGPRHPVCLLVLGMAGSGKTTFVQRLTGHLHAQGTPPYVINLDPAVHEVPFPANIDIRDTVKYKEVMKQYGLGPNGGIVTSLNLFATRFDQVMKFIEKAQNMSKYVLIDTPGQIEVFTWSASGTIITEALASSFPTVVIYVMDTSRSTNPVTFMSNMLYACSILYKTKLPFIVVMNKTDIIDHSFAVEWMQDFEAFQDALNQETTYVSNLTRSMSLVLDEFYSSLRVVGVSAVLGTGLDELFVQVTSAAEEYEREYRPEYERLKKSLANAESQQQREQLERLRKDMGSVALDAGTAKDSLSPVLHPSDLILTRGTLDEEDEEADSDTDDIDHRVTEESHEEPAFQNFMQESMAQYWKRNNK
PDIA3, P30101, UniProt P30101, whole entry: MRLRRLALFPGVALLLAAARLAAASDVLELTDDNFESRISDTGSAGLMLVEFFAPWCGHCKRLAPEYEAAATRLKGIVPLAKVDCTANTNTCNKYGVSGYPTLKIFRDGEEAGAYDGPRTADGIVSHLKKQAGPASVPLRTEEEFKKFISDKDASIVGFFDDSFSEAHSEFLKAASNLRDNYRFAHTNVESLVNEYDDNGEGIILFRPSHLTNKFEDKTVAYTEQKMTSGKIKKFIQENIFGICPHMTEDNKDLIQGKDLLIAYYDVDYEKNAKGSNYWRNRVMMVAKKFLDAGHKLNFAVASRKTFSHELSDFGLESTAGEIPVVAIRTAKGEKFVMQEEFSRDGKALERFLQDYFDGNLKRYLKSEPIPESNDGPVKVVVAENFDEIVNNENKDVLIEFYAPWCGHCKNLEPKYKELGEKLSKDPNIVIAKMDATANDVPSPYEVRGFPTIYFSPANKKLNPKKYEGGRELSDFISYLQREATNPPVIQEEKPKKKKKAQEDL
SNRPB2, P08579, UniProt P08579, whole entry: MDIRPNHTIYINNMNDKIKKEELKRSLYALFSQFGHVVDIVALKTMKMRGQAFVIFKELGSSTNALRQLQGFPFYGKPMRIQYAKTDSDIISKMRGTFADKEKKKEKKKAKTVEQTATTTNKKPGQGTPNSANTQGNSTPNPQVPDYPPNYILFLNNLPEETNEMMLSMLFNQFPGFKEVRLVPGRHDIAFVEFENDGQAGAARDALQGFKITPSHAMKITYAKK
TF, P02787, UniProt P02787, whole entry: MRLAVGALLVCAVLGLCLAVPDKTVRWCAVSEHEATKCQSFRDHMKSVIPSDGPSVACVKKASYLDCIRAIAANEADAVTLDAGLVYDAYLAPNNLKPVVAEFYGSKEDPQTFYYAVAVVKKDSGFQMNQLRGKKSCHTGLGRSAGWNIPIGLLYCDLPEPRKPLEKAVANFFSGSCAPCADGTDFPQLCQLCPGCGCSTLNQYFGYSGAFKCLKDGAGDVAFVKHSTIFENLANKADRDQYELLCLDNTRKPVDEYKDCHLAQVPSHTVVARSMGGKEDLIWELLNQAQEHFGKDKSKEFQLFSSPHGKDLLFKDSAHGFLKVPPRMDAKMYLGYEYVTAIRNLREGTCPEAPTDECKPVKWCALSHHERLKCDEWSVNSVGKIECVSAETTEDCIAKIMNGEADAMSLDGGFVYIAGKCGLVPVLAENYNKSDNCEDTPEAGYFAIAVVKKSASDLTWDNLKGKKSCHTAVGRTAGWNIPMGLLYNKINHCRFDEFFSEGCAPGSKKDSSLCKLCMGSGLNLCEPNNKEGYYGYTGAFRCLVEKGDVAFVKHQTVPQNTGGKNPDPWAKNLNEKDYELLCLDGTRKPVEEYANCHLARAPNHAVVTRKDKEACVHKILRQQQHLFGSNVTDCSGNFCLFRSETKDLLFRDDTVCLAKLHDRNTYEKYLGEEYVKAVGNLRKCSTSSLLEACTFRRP
ASCC3, Q8N3C0, UniProt Q8N3C0, whole entry: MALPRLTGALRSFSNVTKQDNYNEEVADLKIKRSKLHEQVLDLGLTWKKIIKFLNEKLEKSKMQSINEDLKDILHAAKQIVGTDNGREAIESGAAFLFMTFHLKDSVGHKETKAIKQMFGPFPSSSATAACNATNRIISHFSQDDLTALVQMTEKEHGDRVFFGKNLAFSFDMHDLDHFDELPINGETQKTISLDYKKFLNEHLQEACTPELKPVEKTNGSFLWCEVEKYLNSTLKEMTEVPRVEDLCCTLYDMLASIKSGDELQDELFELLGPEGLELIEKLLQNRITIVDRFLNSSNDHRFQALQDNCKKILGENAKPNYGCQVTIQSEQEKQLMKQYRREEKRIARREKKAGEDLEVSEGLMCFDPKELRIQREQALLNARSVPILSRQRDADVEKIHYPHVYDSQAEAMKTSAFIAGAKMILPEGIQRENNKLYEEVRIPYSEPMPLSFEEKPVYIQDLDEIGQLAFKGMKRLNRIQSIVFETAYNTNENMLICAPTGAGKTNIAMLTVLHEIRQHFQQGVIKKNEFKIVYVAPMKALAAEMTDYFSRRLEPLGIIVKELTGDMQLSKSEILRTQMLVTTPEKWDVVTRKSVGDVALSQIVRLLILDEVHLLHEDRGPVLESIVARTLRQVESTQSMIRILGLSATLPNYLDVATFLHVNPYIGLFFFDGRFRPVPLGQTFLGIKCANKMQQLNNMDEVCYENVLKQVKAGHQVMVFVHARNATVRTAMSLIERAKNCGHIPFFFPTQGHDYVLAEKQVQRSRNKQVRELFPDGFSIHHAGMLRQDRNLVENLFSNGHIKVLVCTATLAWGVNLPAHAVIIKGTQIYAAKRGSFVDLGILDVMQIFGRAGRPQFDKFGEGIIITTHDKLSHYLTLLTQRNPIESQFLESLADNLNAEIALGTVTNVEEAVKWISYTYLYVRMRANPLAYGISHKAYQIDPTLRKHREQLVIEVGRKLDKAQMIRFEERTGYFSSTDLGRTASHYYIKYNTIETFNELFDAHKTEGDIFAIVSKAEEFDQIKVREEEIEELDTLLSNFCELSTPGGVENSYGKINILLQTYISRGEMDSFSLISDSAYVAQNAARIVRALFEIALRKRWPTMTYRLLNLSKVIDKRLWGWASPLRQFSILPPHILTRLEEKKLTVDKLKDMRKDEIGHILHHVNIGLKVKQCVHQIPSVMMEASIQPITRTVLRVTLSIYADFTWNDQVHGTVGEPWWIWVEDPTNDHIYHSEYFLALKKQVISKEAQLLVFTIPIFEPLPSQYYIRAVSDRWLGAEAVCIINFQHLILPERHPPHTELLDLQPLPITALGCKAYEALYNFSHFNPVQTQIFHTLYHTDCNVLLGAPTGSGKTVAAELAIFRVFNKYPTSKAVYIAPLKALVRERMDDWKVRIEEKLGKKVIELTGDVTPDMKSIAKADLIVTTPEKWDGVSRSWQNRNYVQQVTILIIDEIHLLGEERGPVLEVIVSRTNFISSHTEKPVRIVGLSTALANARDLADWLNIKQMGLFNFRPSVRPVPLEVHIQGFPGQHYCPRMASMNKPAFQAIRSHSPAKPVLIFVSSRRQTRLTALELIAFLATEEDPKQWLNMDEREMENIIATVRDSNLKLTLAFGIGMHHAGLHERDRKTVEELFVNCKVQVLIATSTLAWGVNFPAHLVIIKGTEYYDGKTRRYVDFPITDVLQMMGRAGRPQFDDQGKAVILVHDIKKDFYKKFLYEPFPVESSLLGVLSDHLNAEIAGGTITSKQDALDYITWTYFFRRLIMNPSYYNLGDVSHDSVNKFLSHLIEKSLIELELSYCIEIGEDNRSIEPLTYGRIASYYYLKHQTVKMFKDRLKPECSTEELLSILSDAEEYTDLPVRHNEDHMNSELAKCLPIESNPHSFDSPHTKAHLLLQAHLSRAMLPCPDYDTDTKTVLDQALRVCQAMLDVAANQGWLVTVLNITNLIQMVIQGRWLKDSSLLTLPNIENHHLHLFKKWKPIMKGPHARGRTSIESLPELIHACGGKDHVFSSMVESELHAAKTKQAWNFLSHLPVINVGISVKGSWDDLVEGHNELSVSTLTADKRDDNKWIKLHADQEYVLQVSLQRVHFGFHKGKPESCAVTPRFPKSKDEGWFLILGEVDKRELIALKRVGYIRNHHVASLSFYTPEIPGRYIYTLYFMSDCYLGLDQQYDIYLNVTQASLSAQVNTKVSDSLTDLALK
COIL, P38432, UniProt P38432, whole entry: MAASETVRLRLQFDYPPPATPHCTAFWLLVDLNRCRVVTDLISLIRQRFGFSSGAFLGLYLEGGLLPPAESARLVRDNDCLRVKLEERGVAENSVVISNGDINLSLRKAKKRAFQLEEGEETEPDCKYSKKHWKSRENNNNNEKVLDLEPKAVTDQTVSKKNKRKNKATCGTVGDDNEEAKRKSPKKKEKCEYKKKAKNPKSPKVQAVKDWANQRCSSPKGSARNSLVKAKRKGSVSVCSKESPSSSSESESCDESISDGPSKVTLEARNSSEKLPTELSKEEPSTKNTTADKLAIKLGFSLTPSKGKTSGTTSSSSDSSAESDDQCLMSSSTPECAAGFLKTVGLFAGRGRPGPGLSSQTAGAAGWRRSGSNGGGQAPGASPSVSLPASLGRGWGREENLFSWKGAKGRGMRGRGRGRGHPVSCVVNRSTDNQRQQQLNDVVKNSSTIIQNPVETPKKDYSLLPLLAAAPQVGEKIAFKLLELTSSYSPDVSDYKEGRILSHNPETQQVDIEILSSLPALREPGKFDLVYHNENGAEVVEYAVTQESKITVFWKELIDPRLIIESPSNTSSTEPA
PPP1CA, P62136, UniProt P62136, whole entry: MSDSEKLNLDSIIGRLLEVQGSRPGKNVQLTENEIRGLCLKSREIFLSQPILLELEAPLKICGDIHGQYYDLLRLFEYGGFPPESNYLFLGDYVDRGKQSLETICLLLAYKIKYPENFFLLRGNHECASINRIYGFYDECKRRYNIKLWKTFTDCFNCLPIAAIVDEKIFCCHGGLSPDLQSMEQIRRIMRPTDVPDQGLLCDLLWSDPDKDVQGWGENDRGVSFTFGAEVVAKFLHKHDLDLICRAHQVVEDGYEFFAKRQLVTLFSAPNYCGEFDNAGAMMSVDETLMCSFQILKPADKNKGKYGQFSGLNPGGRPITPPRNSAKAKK
TPM3, P06753, UniProt P06753, whole entry: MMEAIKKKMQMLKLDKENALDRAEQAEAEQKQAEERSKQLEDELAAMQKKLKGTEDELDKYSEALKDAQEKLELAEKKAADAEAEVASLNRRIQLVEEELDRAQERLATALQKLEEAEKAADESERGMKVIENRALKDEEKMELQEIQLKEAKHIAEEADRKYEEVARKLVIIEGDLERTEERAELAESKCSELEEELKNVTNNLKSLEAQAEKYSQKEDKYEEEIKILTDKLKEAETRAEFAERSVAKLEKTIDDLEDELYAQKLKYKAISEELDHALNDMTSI

Key:
Test in all cases: PRISMA enrichment of interactor (LFQ) in peptide spot vs all other peptide spots (log2 fold change); higher = stronger / more specific binding of the interactor to the peptide
ACACA, Q13085 = biological target: ACACA, Q13085
Experimental: (§1)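 PRISMA: 15-aa overlapping tiles (offset 8 aa) of 60 microproteins, plus SOS1/GLUT1 control peptides, were spot-synthesized on cellulose membranes in triplicate. Membranes were incubated with benzonase-treated HEK293T lysate, and bound proteins were identified by LC-MS/MS with LFQ. Enrichment is the log2 fold change of each protein in one spot versus all other spots. Only interactors passing the significance cutoff are listed.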

ACAT2, Q9BWD1 = biological target: ACAT2, Q9BWD1
Experimental: as §1

ADAR, P55265 = biological target: ADAR, P55265
Experimental: as §1

AK4, P27144 = biological target: AK4, P27144
Experimental: as §1

C12orf45, Q8N5I9 = biological target: C12orf45, Q8N5I9
Experimental: as §1

CDC27, P30260 = biological target: CDC27, P30260
Experimental: as §1

FAM120A, Q9NZB2 = biological target: FAM120A, Q9NZB2
Experimental: as §1

GATA6, Q92908 = biological target: GATA6, Q92908
Experimental: as §1

GPAT4, Q86UL3 = biological target: GPAT4, Q86UL3
Experimental: as §1

GPN1, Q9HCN4 = biological target: GPN1, Q9HCN4
Experimental: as §1

MRPL47, Q9HD33 = biological target: MRPL47, Q9HD33
Experimental: as §1

MRPS10, P82664 = biological target: MRPS10, P82664
Experimental: as §1

NAA15, Q9BXJ9 = biological target: NAA15, Q9BXJ9
Experimental: as §1

NEPRO, Q6NW34 = biological target: NEPRO, Q6NW34
Experimental: as §1

NKRF, O15226 = biological target: NKRF, O15226
Experimental: as §1

OXA1L, Q15070 = biological target: OXA1L, Q15070
Experimental: as §1

PDIA3, P30101 = biological target: PDIA3, P30101
Experimental: as §1

PEX3, P56589 = biological target: PEX3, P56589
Experimental: as §1

POLR2C, P19387 = biological target: POLR2C, P19387
Experimental: as §1

PSMA5, P28066 = biological target: PSMA5, P28066
Experimental: as §1

RPF2, Q9H7B2 = biological target: RPF2, Q9H7B2
Experimental: as §1

SNRPB2, P08579 = biological target: SNRPB2, P08579
Experimental: as §1

TF, P02787 = biological target: TF, P02787
Experimental: as §1

THYN1, Q9P016 = biological target: THYN1, Q9P016
Experimental: as §1

UBAP2L, Q14157 = biological target: UBAP2L, Q14157
Experimental: as §1

UQCRFS1, P47985 = biological target: UQCRFS1, P47985
Experimental: as §1

ACAD11, Q709F0 = biological target: ACAD11, Q709F0
Experimental: as §1

CFAP20, Q9Y6A4 = biological target: CFAP20, Q9Y6A4
Experimental: as §1

CLTA, P09496 = biological target: CLTA, P09496
Experimental: as §1

CLTB, P09497 = biological target: CLTB, P09497
Experimental: as §1

CLTC, Q00610 = biological target: CLTC, Q00610
Experimental: as §1

DECR1, Q16698 = biological target: DECR1, Q16698
Experimental: as §1

ECHS1, P30084 = biological target: ECHS1, P30084
Experimental: as §1

GABARAPL2, P60520 = biological target: GABARAPL2, P60520
Experimental: as §1

HIST2H2BE, Q16778 = biological target: HIST2H2BE, Q16778
Experimental: as §1

MAP1LC3B, Q9GZQ8 = biological target: MAP1LC3B, Q9GZQ8
Experimental: as §1

PYCR2, Q96C36 = biological target: PYCR2, Q96C36
Experimental: as §1

SEC16A, O15027 = biological target: SEC16A, O15027
Experimental: as §1

ZNF724, A8MTY0 = biological target: ZNF724, A8MTY0
Experimental: as §1

ACAD9, Q9H845 = biological target: ACAD9, Q9H845
Experimental: as §1

ASCC3, Q8N3C0 = biological target: ASCC3, Q8N3C0
Experimental: as §1

AURKA, O14965 = biological target: AURKA, O14965
Experimental: as §1

COIL, P38432 = biological target: COIL, P38432
Experimental: as §1

CPS1, P31327 = biological target: CPS1, P31327
Experimental: as §1

DDX42, Q86XP3 = biological target: DDX42, Q86XP3
Experimental: as §1

FLOT1, O75955 = biological target: FLOT1, O75955
Experimental: as §1

GLRX3, O76003 = biological target: GLRX3, O76003
Experimental: as §1

IDH3A, P50213 = biological target: IDH3A, P50213
Experimental: as §1

PFKP, Q01813 = biological target: PFKP, Q01813
Experimental: as §1

PPP1CA, P62136 = biological target: PPP1CA, P62136
Experimental: as §1

PPP1R2, P41236 = biological target: PPP1R2, P41236
Experimental: as §1

PSMC1, P62191 = biological target: PSMC1, P62191
Experimental: as §1

RAB3GAP2, Q9H2M9 = biological target: RAB3GAP2, Q9H2M9
Experimental: as §1

SERPINH1, P50454 = biological target: SERPINH1, P50454
Experimental: as §1

SRPRB, Q9Y5M8 = biological target: SRPRB, Q9Y5M8
Experimental: as §1

TPM3, P06753 = biological target: TPM3, P06753
Experimental: as §1

**Q.** For LLAEDSPLSRPPHRR [IFRD1], which “PRISMA enrichment of interactor (log2)” value (ACACA, Q13085) is on record?
**A.** 5.33

**Q.** What about the “PRISMA enrichment of interactor (log2)” value (ACAT2, Q9BWD1) of the same binder?
**A.** 4.64

**Q.** And the “PRISMA enrichment of interactor (log2)” value (ADAR, P55265)?
**A.** 4.56

**Q.** And the “PRISMA enrichment of interactor (log2)” value (AK4, P27144)?
**A.** 4.94

**Q.** And the “PRISMA enrichment of interactor (log2)” value (C12orf45, Q8N5I9)?
**A.** 4.07

**Q.** What about the “PRISMA enrichment of interactor (log2)” value (CDC27, P30260) of the same binder?
**A.** 6.28

**Q.** What about the “PRISMA enrichment of interactor (log2)” value (FAM120A, Q9NZB2) of the same binder?
**A.** 4.98

**Q.** And the “PRISMA enrichment of interactor (log2)” value (GATA6, Q92908)?
**A.** 6.09

**Q.** What about the “PRISMA enrichment of interactor (log2)” value (GPAT4, Q86UL3) of the same binder?
**A.** 6.13

**Q.** And the “PRISMA enrichment of interactor (log2)” value (GPN1, Q9HCN4)?
**A.** 4.54

**Q.** And the “PRISMA enrichment of interactor (log2)” value (MRPL47, Q9HD33)?
**A.** 5.57

**Q.** And the “PRISMA enrichment of interactor (log2)” value (MRPS10, P82664)?
**A.** 6.58

**Q.** What about the “PRISMA enrichment of interactor (log2)” value (NAA15, Q9BXJ9) of the same binder?
**A.** 5.5

**Q.** What about the “PRISMA enrichment of interactor (log2)” value (NEPRO, Q6NW34) of the same binder?
**A.** 6.91

**Q.** What about the “PRISMA enrichment of interactor (log2)” value (NKRF, O15226) of the same binder?
**A.** 6.07

**Q.** And the “PRISMA enrichment of interactor (log2)” value (OXA1L, Q15070)?
**A.** 6.11

**Q.** And the “PRISMA enrichment of interactor (log2)” value (PDIA3, P30101)?
**A.** 5.16

**Q.** And the “PRISMA enrichment of interactor (log2)” value (PEX3, P56589)?
**A.** 5.8

**Q.** What about the “PRISMA enrichment of interactor (log2)” value (POLR2C, P19387) of the same binder?
**A.** 5.64

**Q.** What about the “PRISMA enrichment of interactor (log2)” value (PSMA5, P28066) of the same binder?
**A.** 5.61

**Q.** What about the “PRISMA enrichment of interactor (log2)” value (RPF2, Q9H7B2) of the same binder?
**A.** 5.1

**Q.** What about the “PRISMA enrichment of interactor (log2)” value (SNRPB2, P08579) of the same binder?
**A.** 5.81

**Q.** And the “PRISMA enrichment of interactor (log2)” value (TF, P02787)?
**A.** 5.38

**Q.** And the “PRISMA enrichment of interactor (log2)” value (THYN1, Q9P016)?
**A.** 4.49

**Q.** And the “PRISMA enrichment of interactor (log2)” value (UBAP2L, Q14157)?
**A.** 5.12

**Q.** And the “PRISMA enrichment of interactor (log2)” value (UQCRFS1, P47985)?
**A.** 9.11

**Q.** What does the source list for TPEELFHLLGADSQ [GLUT1_MUT_3]?
**A.** PRISMA enrichment of interactor (log2) (ACAD11, Q709F0): 3.97; PRISMA enrichment of interactor (log2) (CFAP20, Q9Y6A4): 4.25; PRISMA enrichment of interactor (log2) (CLTA, P09496): 5.78; PRISMA enrichment of interactor (log2) (CLTB, P09497): 4.89; PRISMA enrichment of interactor (log2) (CLTC, Q00610): 3.43; PRISMA enrichment of interactor (log2) (DECR1, Q16698): 5.09; PRISMA enrichment of interactor (log2) (ECHS1, P30084): 5.68; PRISMA enrichment of interactor (log2) (GABARAPL2, P60520): 5.21; PRISMA enrichment of interactor (log2) (HIST2H2BE, Q16778): 4.48; PRISMA enrichment of interactor (log2) (MAP1LC3B, Q9GZQ8): 5.18; PRISMA enrichment of interactor (log2) (PYCR2, Q96C36): 4.75; PRISMA enrichment of interactor (log2) (SEC16A, O15027): 4.15; PRISMA enrichment of interactor (log2) (ZNF724, A8MTY0): 5.39

**Q.** MKASHKTRLIQGVEK [RP3-332B22.1] was tested. Which “PRISMA enrichment of interactor (log2)” value (ACAD9, Q9H845) did it give?
**A.** 8.53

**Q.** What about the “PRISMA enrichment of interactor (log2)” value (ASCC3, Q8N3C0) of the same binder?
**A.** 9.74

**Q.** What about the “PRISMA enrichment of interactor (log2)” value (AURKA, O14965) of the same binder?
**A.** 4.5

**Q.** And the “PRISMA enrichment of interactor (log2)” value (COIL, P38432)?
**A.** 4.56

**Q.** What about the “PRISMA enrichment of interactor (log2)” value (CPS1, P31327) of the same binder?
**A.** 5.2

**Q.** And the “PRISMA enrichment of interactor (log2)” value (DDX42, Q86XP3)?
**A.** 8.23

**Q.** What about the “PRISMA enrichment of interactor (log2)” value (FLOT1, O75955) of the same binder?
**A.** 7.68

**Q.** What about the “PRISMA enrichment of interactor (log2)” value (GLRX3, O76003) of the same binder?
**A.** 4.57

**Q.** And the “PRISMA enrichment of interactor (log2)” value (IDH3A, P50213)?
**A.** 4.76

**Q.** And the “PRISMA enrichment of interactor (log2)” value (MRPL47, Q9HD33)?
**A.** 4.56

**Q.** What about the “PRISMA enrichment of interactor (log2)” value (NEPRO, Q6NW34) of the same binder?
**A.** 4.38

**Q.** And the “PRISMA enrichment of interactor (log2)” value (PFKP, Q01813)?
**A.** 5

**Q.** And the “PRISMA enrichment of interactor (log2)” value (PPP1CA, P62136)?
**A.** 4.94

**Q.** And the “PRISMA enrichment of interactor (log2)” value (PPP1R2, P41236)?
**A.** 4.9

**Q.** What about the “PRISMA enrichment of interactor (log2)” value (PSMC1, P62191) of the same binder?
**A.** 4.91

**Q.** What about the “PRISMA enrichment of interactor (log2)” value (RAB3GAP2, Q9H2M9) of the same binder?
**A.** 4.22

**Q.** And the “PRISMA enrichment of interactor (log2)” value (SERPINH1, P50454)?
**A.** 6.5

**Q.** What about the “PRISMA enrichment of interactor (log2)” value (SRPRB, Q9Y5M8) of the same binder?
**A.** 5.82

**Q.** And the “PRISMA enrichment of interactor (log2)” value (TPM3, P06753)?
**A.** 5.95
